Assay results from the supplement of paper PMC4604168 (melanoma cell lines).
Some of the results follow. Many values rest on one well or one pass, so single values are uncertain.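 Cells were imaged in 1,536-well plates, and nuclei stained with an antibody against cleaved PARP were counted against all DNA-stained nuclei to give the apoptosis fraction. Screening doses were chosen to leave most cells alive, and resting and induced cleaved-PARP levels differ strongly between cell lines.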

Legend:
Assay in all cases: cleaved PARP positive nuclei fraction relative to DMSO control; melanoma cells; higher = more apoptosis
Conditions in all cases: library dose: low library concentration; 72 h
501Mel = tested on: 501Mel
A101D = tested on: A101D
A2058 = tested on: A2058
A375 = tested on: A375
C32 = tested on: C32
CBRC008 = tested on: CBRC008 (line from a melanoma biopsy)
CBRC014 = tested on: CBRC014 (line from a melanoma biopsy)
CBRC016 = tested on: CBRC016 (line from a melanoma biopsy)
CBRC017 = tested on: CBRC017 (line from a melanoma biopsy)
CBRC034 = tested on: CBRC034 (line from a melanoma biopsy)
COLO792 = tested on: COLO792
COLO800 = tested on: COLO800
COLO829 = tested on: COLO829
G361 = tested on: G361
IPC-298 = tested on: IPC-298
IST-MEL1 = tested on: IST-MEL1
LB2518-MEL = tested on: LB2518-MEL
LOXIMVI = tested on: LOXIMVI
MEL-HO = tested on: MEL-HO

Structure (SMILES)	cleaved PARP positive nuclei fraction (501Mel) [%]	cleaved PARP positive nuclei fraction (A101D) [%]	cleaved PARP positive nuclei fraction (A2058) [%]	cleaved PARP positive nuclei fraction (A375) [%]	cleaved PARP positive nuclei fraction (C32) [%]	cleaved PARP positive nuclei fraction (CBRC008) [%]	cleaved PARP positive nuclei fraction (CBRC014) [%]	cleaved PARP positive nuclei fraction (CBRC016) [%]	cleaved PARP positive nuclei fraction (CBRC017) [%]	cleaved PARP positive nuclei fraction (CBRC034) [%]	cleaved PARP positive nuclei fraction (COLO792) [%]	cleaved PARP positive nuclei fraction (COLO800) [%]	cleaved PARP positive nuclei fraction (COLO829) [%]	cleaved PARP positive nuclei fraction (G361) [%]	cleaved PARP positive nuclei fraction (IPC-298) [%]	cleaved PARP positive nuclei fraction (IST-MEL1) [%]	cleaved PARP positive nuclei fraction (LB2518-MEL) [%]	cleaved PARP positive nuclei fraction (LOXIMVI) [%]	cleaved PARP positive nuclei fraction (MEL-HO) [%]
O=C(O)[C@@H]1[O][Sb](=[O])([O][Sb]2(=[O])[O][C@H]([C@H](O)CO)[C@H](O)[C@H](C(=O)O)[O]2)[O][C@H]([C@H](O)CO)[C@@H]1O (some centres not stated) [stibogluconate] + C=CCNC1=C2C[C@@H](C)C[C@H](OC)[C@H](O)[C@@H](C)/C=C(\C)[C@H](OC(N)=O)[C@@H](OC)/C=C\C=C(/C)C(=O)NC(=CC1=O)C2=O [Tanespimycin] (first compound 2 µM, partner dose 0.002 µM)	97	38.6	31.2	46.5	92.4	23.9	74.8	153	89.2	73.2	44.8	97.3	109	135	81.8	26.8	110	81.7	89.3
Cn1c(=O)n(-c2ccc(C(C)(C)C#N)cc2)c2c3cc(-c4cnc5ccccc5c4)ccc3ncc21 + C[C@@H](Oc1cc(-c2cnn(C3CCNCC3)c2)cnc1N)c1c(Cl)ccc(F)c1Cl [Crizotinib] (first compound 0.004 µM, partner dose 0.2 µM)	159	58.6	79.8	210	132	64.5	101	100	109	66.6	53.4	142	83.4	229	81.9	71.8	61.1	85.2	173
CN1CCN(c2ccc3nc(-c4c(N)c5c(F)cccc5[nH]c4=O)[nH]c3c2)CC1 [Dovitinib] + CCCS(=O)(=O)Nc1ccc(F)c(C(=O)c2c[nH]c3ncc(Cl)cc23)c1F [PLX4720] (first compound 0.1 µM, partner dose 0.08 µM)	59.9	104	119	360	150	110	101	85.9	117	47.6	106	67.9	50.2	59.9	66	70.1	113	24.3	70.6
Cc1cc(Nc2cc(N3CCN(C)CC3)nc(/C=C/c3ccccc3)n2)n[nH]1 + C[C@]1(c2nc3c(C(N)=O)cccc3[nH]2)CCCN1 [Veliparib] (first compound 0.04 µM, partner dose 1.4 µM)	74.2	303	108	136	77.1	47.9	86.4	97.8	101	356	58.3	50.9	125	59.6	40.6	132	216	98.5	48.5
CO[C@H]1C[C@@H]2CC[C@@H](C)[C@@](O)(O2)C(=O)C(=O)N2CCCC[C@H]2C(=O)O[C@H]([C@H](C)C[C@@H]2CC[C@@H](OCCO)[C@H](OC)C2)CC(=O)[C@H](C)/C=C(\C)[C@@H](O)[C@@H](OC)C(=O)[C@H](C)C[C@H](C)/C=C/C=C/C=C/1C [everolimus] + Cn1nnc2c(C(N)=O)ncn2c1=O [temozolomide] (first compound 0.02 µM, partner dose 2 µM)	215	110	65.9	860	252	333	128	103	145	41	153	225	119	88.1	114	85.5	144	149	264
C=C(c1ccc(C(=O)O)cc1)c1cc2c(cc1C)C(C)(C)CCC2(C)C [Bexarotene] + COc1ccc(Cl)c(Nc2nc3ccccc3nc2NS(=O)(=O)c2cccc(NC(=O)C(C)(C)N)c2)c1 [XL147] (first compound 2 µM, partner dose 0.8 µM)	58.2	121	107	46	132	121	456	167	180	112	43.1	195	123	101	42.5	64.9	195	21.2	89.4
CCCS(=O)(=O)Nc1ccc(F)c(C(=O)c2c[nH]c3ncc(Cl)cc23)c1F + COc1ccc(Cl)c(Nc2nc3ccccc3nc2NS(=O)(=O)c2cccc(NC(=O)C(C)(C)N)c2)c1 [XL147] (first compound 0.08 µM, partner dose 0.8 µM)	36.1	403	172	351	84.6	108	129	149	137	46.1	116	72.3	109	151	158	103	57.2	71.8	143
CO[C@H]1C[C@@H]2CC[C@@H](C)[C@@](O)(O2)C(=O)C(=O)N2CCCC[C@H]2C(=O)O[C@H]([C@H](C)C[C@@H]2CC[C@@H](OCCO)[C@H](OC)C2)CC(=O)[C@H](C)/C=C(\C)[C@@H](O)[C@@H](OC)C(=O)[C@H](C)C[C@H](C)/C=C/C=C/C=C/1C [everolimus] + CNC(=O)c1cc(Oc2ccc(NC(=O)Nc3ccc(Cl)c(C(F)(F)F)c3)cc2)ccn1 [sorafenib] (first compound 0.02 µM, partner dose 0.4 µM)	262	57.4	158	541	93.7	90.7	101	104	118	166	47.2	23.5	124	120	70	218	173	157	53
